{"source": "PubChem BioAssay AID504744 (Drosophila RNAi Screening Center, 2011)", "test": "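Uncover factors, including feedback loops, that control dAkt activation in fly cells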 (primary screen)", "cell system": "Drosophila Kc167 cells", "reagents": "long dsRNA against Drosophila genes, 250 ng dsRNA per well of a 384-well plate", "duration": "3 days of knock-down, then overnight serum-free starvation before stimulation", "conditions": "bovine insulin at 387 nM for 10 minutes after 12 h without serum", "measured": "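Per-well phospho-dAkt level from an in-cell fluorescent antibody stain, divided by a DNA-dye signal; log2 residuals turned into z-scores that take cell number into account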", "active means": "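Hit in the insulin screen when the two-replicate mean z-score is more extreme than plus or minus 2.5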", "note": "The deposit covers about 23,000 reagents; below is an unselected part of those that have a named target and a result. In the full data, 98 (0.43%) are marked active. 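Only hit calls are given; the phospho-dAkt signals, z-scores and hit direction were not deposited.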 A plus sign joins genes that one reagent is predicted to hit."}
The first 5 entries as a preview:
{"Gene":"CG3857","DRSC id":"DRSC18542","outcome":"inactive"}
{"Gene":"nompA (no mechanoreceptor potential A)","DRSC id":"DRSC06329","outcome":"inactive"}
{"Gene":"ArgRS-m (Arginyl-tRNA synthetase, mitochondrial)","DRSC id":"DRSC14186","outcome":"inactive"}
{"Gene":"CG15278","DRSC id":"DRSC02481","outcome":"inactive"}
{"Gene":"CG30472","DRSC id":"DRSC22245","outcome":"inactive"}

The listing, from the first entry:
{"Gene":"CG3857","DRSC id":"DRSC18542","outcome":"inactive"}
{"Gene":"nompA (no mechanoreceptor potential A)","DRSC id":"DRSC06329","outcome":"inactive"}
{"Gene":"ArgRS-m (Arginyl-tRNA synthetase, mitochondrial)","DRSC id":"DRSC14186","outcome":"inactive"}
{"Gene":"CG15278","DRSC id":"DRSC02481","outcome":"inactive"}
{"Gene":"CG30472","DRSC id":"DRSC22245","outcome":"inactive"}
{"Gene":"SmydA-6 (SET and MYND domain containing, arthropod-specific, member 6)","DRSC id":"DRSC07341","outcome":"inactive"}
{"Gene":"MAGE","DRSC id":"DRSC12504","outcome":"inactive"}
{"Gene":"CG42650","DRSC id":"DRSC12462","outcome":"inactive"}
{"Gene":"Tssk (Testis-specific serine/threonine kinase)","DRSC id":"DRSC14784","outcome":"inactive"}
{"Gene":"Sf3b1 (Splicing factor 3b subunit 1)","DRSC id":"DRSC00535","outcome":"inactive"}
{"Gene":"CG14014","DRSC id":"DRSC02345","outcome":"inactive"}
{"Gene":"UQCR-14L (Ubiquinol-cytochrome c reductase 14 kDa subunit-like)","DRSC id":"DRSC15288","outcome":"inactive"}
{"Gene":"UQCR-14L (Ubiquinol-cytochrome c reductase 14 kDa subunit-like)","DRSC id":"DRSC22425","outcome":"inactive"}
{"Gene":"CG32373","DRSC id":"DRSC08895","outcome":"inactive"}
{"Gene":"CG2233","DRSC id":"DRSC18217","outcome":"inactive"}
{"Gene":"Prp19 (Pre-RNA processing factor 19)","DRSC id":"DRSC07434","outcome":"inactive"}
{"Gene":"Mocs2A + Mocs2B","DRSC id":"DRSC13697","outcome":"inactive"}
{"Gene":"Mocs2A + Mocs2B","DRSC id":"DRSC14219","outcome":"inactive"}
{"Gene":"aqrs (aquarius)","DRSC id":"DRSC14724","outcome":"inactive"}
{"Gene":"IntS2 (Integrator 2)","DRSC id":"DRSC20094","outcome":"inactive"}
{"Gene":"Cyp4d20 (Cytochrome P450 4d20)","DRSC id":"DRSC08654","outcome":"inactive"}
{"Gene":"Mct1 (Monocarboxylate transporter 1)","DRSC id":"DRSC18681","outcome":"inactive"}
{"Gene":"CG10311","DRSC id":"DRSC14228","outcome":"inactive"}
{"Gene":"CG34331","DRSC id":"DRSC20679","outcome":"inactive"}
{"Gene":"gukh (GUK-holder)","DRSC id":"DRSC14768","outcome":"inactive"}
{"Gene":"gukh (GUK-holder)","DRSC id":"DRSC15806","outcome":"inactive"}
{"Gene":"gukh (GUK-holder)","DRSC id":"DRSC15944","outcome":"inactive"}
{"Gene":"CG6678","DRSC id":"DRSC16092","outcome":"inactive"}
{"Gene":"ATPsynbeta (ATP synthase, beta subunit)","DRSC id":"DRSC17194","outcome":"inactive"}
{"Gene":"CG34133","DRSC id":"DRSC16319","outcome":"inactive"}
{"Gene":"CG34133","DRSC id":"DRSC22239","outcome":"inactive"}
{"Gene":"phtf","DRSC id":"DRSC05023","outcome":"inactive"}
{"Gene":"CG10384","DRSC id":"DRSC03933","outcome":"inactive"}
{"Gene":"CG10384","DRSC id":"DRSC04067","outcome":"inactive"}
{"Gene":"Cog7 (Component of oligomeric golgi complex 7)","DRSC id":"DRSC16331","outcome":"inactive"}
{"Gene":"CG6696","DRSC id":"DRSC20004","outcome":"inactive"}
{"Gene":"CG14780","DRSC id":"DRSC18566","outcome":"inactive"}
{"Gene":"TyrR (Tyramine receptor)","DRSC id":"DRSC16242","outcome":"inactive"}
{"Gene":"CG14374","DRSC id":"DRSC14834","outcome":"inactive"}
{"Gene":"Tengl4 (Testis EndoG-Like 4)","DRSC id":"DRSC15620","outcome":"inactive"}
{"Gene":"ImpE3 (Ecdysone-inducible gene E3)","DRSC id":"DRSC16716","outcome":"inactive"}
{"Gene":"Fie (Fire exit)","DRSC id":"DRSC08158","outcome":"inactive"}
{"Gene":"RacGAP84C (Rac GTPase activating protein at 84C)","DRSC id":"DRSC12630","outcome":"inactive"}
{"Gene":"PGAP2 (Post-GPI attachment to proteins 2)","DRSC id":"DRSC00632","outcome":"inactive"}
{"Gene":"CG32371","DRSC id":"DRSC22209","outcome":"inactive"}
{"Gene":"Cht11 (Chitinase 11)","DRSC id":"DRSC18270","outcome":"inactive"}
{"Gene":"Theg (Testicular haploid expressed gene)","DRSC id":"DRSC16023","outcome":"inactive"}
{"Gene":"CG10019","DRSC id":"DRSC00279","outcome":"inactive"}
{"Gene":"Asph (Aspartyl beta-hydroxylase)","DRSC id":"DRSC06783","outcome":"inactive"}
{"Gene":"Asph (Aspartyl beta-hydroxylase)","DRSC id":"DRSC07171","outcome":"inactive"}
{"Gene":"beta'COP (Coat Protein (coatomer) beta')","DRSC id":"DRSC03492","outcome":"inactive"}
{"Gene":"ttv (tout-velu)","DRSC id":"DRSC07709","outcome":"inactive"}
{"Gene":"drosha","DRSC id":"DRSC07607","outcome":"inactive"}
{"Gene":"Nrx-IV (Neurexin IV)","DRSC id":"DRSC11238","outcome":"inactive"}
{"Gene":"CG7299","DRSC id":"DRSC03043","outcome":"inactive"}
{"Gene":"Drep4 (DNA fragmentation factor-related protein 4)","DRSC id":"DRSC03408","outcome":"inactive"}
{"Gene":"CG15136","DRSC id":"DRSC02436","outcome":"inactive"}
